We go through 1 substance from paper PMC7615710.

These are yes or no findings as the source states them, for the method shown. In cells and extracts the contact can be indirect. Where a sequence is shown, tags or fusion partners need not be part of it.

This experiment concerns the target T1, Halo-tagged ASPP1 CTD (887-1090) (UniProt Q96KQ4).
T1 sequence: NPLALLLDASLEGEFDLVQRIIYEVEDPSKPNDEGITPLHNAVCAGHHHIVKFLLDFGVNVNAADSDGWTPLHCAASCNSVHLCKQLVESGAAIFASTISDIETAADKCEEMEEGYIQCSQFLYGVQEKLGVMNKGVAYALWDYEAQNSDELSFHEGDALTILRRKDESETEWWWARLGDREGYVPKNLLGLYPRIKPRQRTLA
The experiment can be described thus: pull-down; only the target purified.

As to “Myc-tagged HCV [1a.1] NS5A ΔPRR(344-363) (from UniProt P26664)”, the binding result is recorded as “no binding”.
